Reference: patent publication US20100266677
Construct, isoform or probe ends are uncertain for at least one entry. Where a protein sequence is shown, tags need not be part of it.

Target: T1, MBNL1 (UniProt Q9NR56)
T1 sequence (looked up, limits assumed): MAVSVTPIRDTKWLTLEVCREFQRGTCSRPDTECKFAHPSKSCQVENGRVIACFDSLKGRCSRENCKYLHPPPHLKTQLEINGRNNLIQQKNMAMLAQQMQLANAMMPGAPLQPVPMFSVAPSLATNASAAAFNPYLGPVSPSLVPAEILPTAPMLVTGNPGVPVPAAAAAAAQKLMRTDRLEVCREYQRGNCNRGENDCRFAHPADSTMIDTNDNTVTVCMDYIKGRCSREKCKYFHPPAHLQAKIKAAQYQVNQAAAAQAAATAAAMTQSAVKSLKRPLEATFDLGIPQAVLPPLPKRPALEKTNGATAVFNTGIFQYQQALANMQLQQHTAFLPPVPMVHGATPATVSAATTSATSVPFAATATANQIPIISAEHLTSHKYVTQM
Test: binding assay
Conditions: enzyme fragment complementation (beta-galactosidase) on plate-immobilized RNA; signal inhibited up to 50% by dimer ligands 8-8, 9-9, 7-9, 8-9, not by 6-6 or …; purified recombinant protein

“GGGCUGCUGCUGCUGCUGCUGCUGCUGCUGCUGCUGCUGCUGCUGCUGCUGCUGCUGCUGCUGCUGCUGCUGCUGCUGCUGCUGCUGCUGCUGCUGCUGCUGCUGCUGCUGCUGCUGCUGCUGCUGCUGCUGCUGCUGCUGCUGCUGCUGCUGCUGCUGCUGCUGCUGCUGCUGCUGCUGCUGCUGCUGCUGCUGCUGCUGCUGCUGCUGCUGCUGCUGCUGCUGCUGCUGCUGCUGCUGCUGCUGCUGCUGCUGCUGCUGCUGCUGCUGCUGCUGCUGCUGCUGCUGCUGCUGCUGCUGCUGCUGCUGCUGCUGCUGCUGCUGCUGCUGGGG [(CUG)109 repeat RNA]”: binds.
